Measured values published in paper doi:10.1101/2025.08.21.671625, “α-catenin phosphorylation is actomyosin-sensitive and required for epithelial barrier functions through Afadin” (bioRxiv, 2025).
These are yes or no findings as the source states them, for the method shown. Binding can be weak; no strength is given. Tags and fused reporters may be left off the sequences shown.

The chains behind the UniProt entries cited, without tags or fusion partners. Where a name states a change or a piece, a line headed by the entry shows the natural chain unless it says otherwise.
UniProt P26232: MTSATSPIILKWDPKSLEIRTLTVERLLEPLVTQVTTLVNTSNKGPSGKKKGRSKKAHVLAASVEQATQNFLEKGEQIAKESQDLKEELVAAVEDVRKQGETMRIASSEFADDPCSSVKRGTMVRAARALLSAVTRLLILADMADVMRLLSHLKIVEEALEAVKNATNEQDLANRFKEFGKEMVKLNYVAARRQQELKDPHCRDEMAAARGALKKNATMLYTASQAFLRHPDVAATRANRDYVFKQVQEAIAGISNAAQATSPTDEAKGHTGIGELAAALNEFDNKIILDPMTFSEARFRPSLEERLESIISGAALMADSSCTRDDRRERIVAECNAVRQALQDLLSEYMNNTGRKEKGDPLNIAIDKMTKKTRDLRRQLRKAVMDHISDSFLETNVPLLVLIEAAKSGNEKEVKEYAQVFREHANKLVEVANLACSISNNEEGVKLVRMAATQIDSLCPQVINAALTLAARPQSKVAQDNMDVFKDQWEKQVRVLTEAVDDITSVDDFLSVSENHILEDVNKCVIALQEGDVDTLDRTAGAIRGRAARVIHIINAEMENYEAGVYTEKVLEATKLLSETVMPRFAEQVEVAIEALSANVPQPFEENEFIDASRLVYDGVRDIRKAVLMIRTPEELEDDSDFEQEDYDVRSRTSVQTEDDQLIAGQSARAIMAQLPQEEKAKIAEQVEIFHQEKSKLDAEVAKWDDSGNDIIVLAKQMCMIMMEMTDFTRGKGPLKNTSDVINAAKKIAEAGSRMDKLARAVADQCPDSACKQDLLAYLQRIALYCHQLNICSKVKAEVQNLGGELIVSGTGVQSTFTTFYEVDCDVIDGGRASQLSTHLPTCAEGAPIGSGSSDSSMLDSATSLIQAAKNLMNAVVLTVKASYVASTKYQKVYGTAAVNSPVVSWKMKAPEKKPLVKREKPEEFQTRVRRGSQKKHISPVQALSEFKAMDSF

Target: T1, GST-Afadin-Coiled-coil α-cat binding region (Afadin-CC-ABR; amino acids 1391–1449) (rat)
T1 sequence: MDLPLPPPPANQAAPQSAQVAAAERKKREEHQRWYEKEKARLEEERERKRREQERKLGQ
Test: pull-down; GST-Afdn-CC-ABR (or GST control) pre-bound to glutathione resin, mixed with α-cat prey proteins, washed, eluted with free glutathione; interaction strength assessed by Coomassie staining; both purified

Substance	binding
αN-cat M1–3 WT (from UniProt P26232) (domain or fragment)	binds weakly
αN-cat M2–3 WT (from UniProt P26232) (domain or fragment)	binds
